This note sets out measurements from publication PMC7601683.

Sequences of proteins named here, by UniProt entry; tags and fusion partners are left off. A change or cut given only in a name is not applied to a line headed by its entry. A line that says so, or that is headed by a name, gives the form on record, which may keep a tag or linker.
CD44 standard isoform, Ha-tagged (human) (P16070-12, form named): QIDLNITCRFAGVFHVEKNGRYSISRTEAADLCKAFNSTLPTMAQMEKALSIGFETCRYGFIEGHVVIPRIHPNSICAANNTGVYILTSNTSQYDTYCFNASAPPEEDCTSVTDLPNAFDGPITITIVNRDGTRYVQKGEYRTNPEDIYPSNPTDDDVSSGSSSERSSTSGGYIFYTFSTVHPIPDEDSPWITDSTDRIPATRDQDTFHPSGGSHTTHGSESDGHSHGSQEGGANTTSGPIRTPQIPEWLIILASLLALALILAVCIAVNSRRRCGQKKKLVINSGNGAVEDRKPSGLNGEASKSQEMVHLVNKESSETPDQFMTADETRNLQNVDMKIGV

Common to all, as to test: co-IP; HEK293T cells transiently co-transfected with FLAG-tagged podoplanin constructs and Ha-tagged CD44 isoforms; lysed after 24 h in IP buffer (50 mM Tris-HCl pH 7.5, 100 mM NaCl, 5 mM EDTA, 0.5% NP-40, 10% glycerol); about 750 μg lysate, anti-FLAG mAb and protein G Dynabeads overnight at 4 °C; blot with anti-Ha
Experiment [1] deals with PDPN-I1, FLAG-tagged (island 1 glycosylation mutant) (human) (UniProt Q86YL7).
In experiment [2] the target is PDPN-I2, FLAG-tagged (island 2 glycosylation mutant) (human) (UniProt Q86YL7).
For experiment [3], the target named is PDPN-ΔPLAG3, FLAG-tagged (human) (UniProt Q86YL7).
Experiment [4] addresses T1, podoplanin wild-type, FLAG-tagged (human) (human) (UniProt Q86YL7).
T1 sequence: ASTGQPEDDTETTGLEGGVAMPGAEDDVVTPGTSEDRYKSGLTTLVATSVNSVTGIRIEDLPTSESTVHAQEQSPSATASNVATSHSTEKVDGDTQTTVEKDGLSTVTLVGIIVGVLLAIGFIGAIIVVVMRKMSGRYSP

Results are given in words; binding and its absence hold for the method and conditions named. Binding seen in cells or lysates may run through a third protein. Binding can be weak; no strength is given. For some of these results: Sequences can lack the tags named with a protein.

Take “CD44 standard isoform, Ha-tagged (human) (from UniProt P16070-12 21-361)”: the binding result in experiment [1], in experiment [2] and in experiment [3] was “binds” throughout.

On to CD44v6-10 isoform, Ha-tagged (human), for which the binding result in experiment [4] is “binds”.
